Reference: patent US11046700B2, “Substituted imidazo[1,2-a]pyrazines, pyrazolo[1,5-c]pyrimidines, pyrazolo[1,5-a]pyridines, and purines for the treatment of schistosomiasis” (Merck Patent GmbH, priority 2017, dated 2021)
Some entries share one result that the patent states for a list of compounds.

System: worms
Experiment: Mouse model of infection, oral administration (summary statements, worm stage not specified)
Format: in vivo, Schistosoma mansoni
Conditions: administered orally in the mouse model of infection, P value <0.05
[1] = single dose of 25 mg/kg or less

| Compound | statistically significant reduction in worm numbers [1] | statistically significant reduction in worm numbers |
| --- | --- | --- |
| CC(C)c1nc2cnc(-c3ccc(F)c(C(F)(F)F)c3)cn2c1-c1ccc2[nH]ncc2c1F [Example 2, 4-fluoro-5-{6-[4-fluoro-3-(trifluoromethyl)phenyl]-2-(propan-2-yl)imidazo[1,2-a]pyrazin-3-yl}-1H-indazole] | at least 50% | at least 50% |
| CC(C)c1nc2cnc(-c3ccc(F)c(C(F)(F)F)c3)cn2c1-c1c(F)cc(O)cc1F [Example 17, 3,5-difluoro-4-[2-(propan-2-yl)-6-[4-fluoro-3-(trifluoromethyl)phenyl]imidazo[1,2-a]pyrazin-3-yl]phenol] |  | at least 50% |
| Fc1c(-c2c(C(F)(F)F)nc3cnc(-c4cccc(C(F)(F)C(F)(F)F)c4)cn23)ccc2[nH]ncc12 [Example 29, 4-fluoro-5-{2-trifluoromethyl-6-[3-(pentafluoroethyl)phenyl]imidazo[1,2-a]pyrazin-3-yl}-1H-indazole] | at least 50% | at least 50% |
| Fc1ccc(-c2cn3c(-c4ccc5[nH]ncc5c4F)c(C(F)(F)F)nc3cn2)cc1C(F)(F)F [Example 50, 3-(4-Fluoro-1H-indazol-5-yl)-6-(4-fluoro-3-trifluoromethylphenyl)-2-trifluoromethyl-imidazo[1,2-a]pyrazine] | at least 50% | at least 50% |
| Fc1ccc(-c2cn3c(-c4ccc5[nH]ncc5c4F)c(C(F)(F)F)nc3cn2)cc1C(F)(F)C(F)(F)F [Example 63, 3-(4-Fluoro-1H-indazol-5-yl)-6-(4-fluoro-3-pentafluoroethyl-phenyl)-2-trifluoromethyl-imidazo[1,2-a]pyrazine] | at least 50% | at least 50% |
| CC(C)c1cc(-c2cn3c(-c4ccc5[nH]ncc5c4F)c(C(F)(F)F)nc3cn2)ccc1F [Example 67, 3-(4-Fluoro-1H-indazol-5-yl)-6-(4-fluoro-3-isopropyl-phenyl)-2-trifluoromethyl-imidazo[1,2-a]pyrazine] |  | at least 50% |
